# According to PubChem BioAssay AID493014 (National Center for Advancing Translational Sciences (NCATS), 2011):
# Some of the results follow. The main result of the screen is listed elsewhere. These columns were measured beside it and carry no call. The list favours compounds with an active or inconclusive main result. Potencies come from curve fits of mixed quality, noted in brackets.
# Assay: qHTS Assay to Find Inhibitors of Chronic Active B-Cell Receptor Signaling
# Settings: ABC-DLBCL IkBa-CBG/CBR reporter, luminescence ratio (green luciferase fused to IkBa over red control in TMD8 lymphoma cells), 4 h
# In short: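 Compounds up to 46 uM were incubated four hours with TMD8 cells whose green CBG68 luciferase is fused to IkappaBalpha; red CBR luminescence normalised the signal, and concentration-effect curves were fitted to fusion, red and ratio data.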
# [1] = measured here: CBR red luminescence, cell number
# [2] = measured here: IkBa-CBG green luminescence
Compound,AC50 [1],AC50 [2]
COc1ccc(S(=O)(=O)N2CCOC2CNC(=O)C(=O)NCCc2ccc(S(N)(=O)=O)cc2)cc1 (configuration not stated),"35.5 µM [rising, single point]",–
CCOc1ccccc1-c1cc(C(=O)N/N=C/c2ccc(O)c(OC)c2)c2ccccc2n1,"29.1 µM [falling, single point]",–
O=C(N[C@@H](Cc1ccccc1)C(=O)OCc1ccccc1)c1nc[nH]c1C(=O)N1CCc2ccccc2C1,"22.4 µM [falling, single point]",–
Cc1ccc(CNC(=O)C(=O)NCC(c2ccco2)N2CCOCC2)cc1 (configuration not stated),"0.92 µM [falling, partial curve, poor fit]",–
CC(C)CNC(=O)c1coc(=O)c(Br)c1,"1.16 µM [rising, full curve, poor fit]","14.6 µM [falling, partial curve, poor fit]"
COCc1nc(-c2ccc(-c3ccc(OC)cc3)nc2OC)no1,"10.3 µM [rising, partial curve]",–
CCCc1cc(-c2[nH]ncc2-c2ccc(C(=O)OCC)o2)c(O)cc1O,"10 µM [falling, partial curve, poor fit]",–
CCc1ccc(NCc2cc3c(C)nn(-c4ccccc4)c3[nH]c2=O)cc1,"20.6 µM [falling, partial curve, poor fit]",–
CCOC(=O)c1cccc(COC(=O)c2cccc(-c3nnc(-c4ccccc4)o3)c2)c1,"16.4 µM [falling, partial curve]",–
O=C(NCCC1=CCCCC1)c1ccc2c(c1)N(Cc1cccc(Cl)c1)C(=O)c1ccccc1S2=O (configuration not stated),"15.8 µM [rising, single point]",–
OCCSc1nc2ccccc2n1CCOc1ccccc1,"2.06 µM [rising, full curve, poor fit]",–
COCCn1c(SCc2c(F)cccc2Cl)nc2c1c(=O)[nH]c(=O)n2C,"0.291 µM [rising, full curve, poor fit]",–
O=C(O)c1ccc(N=Cc2nc(-c3ccco3)oc2O)cc1,"2.51 µM [falling, full curve]","7.08 µM [rising, partial curve, poor fit]"
CCCCn1c(=N)n(CC(O)COc2cccc(C)c2)c2ccccc21 (configuration not stated),"10 µM [falling, partial curve]",–
CC(C)CC1(C)NC(=O)N(CC(=O)NC(=O)Nc2ccc3c(c2)OCCO3)C1=O (configuration not stated),"10 µM [falling, partial curve, poor fit]",–
O=C(N/N=C(/CC(=O)c1cccs1)C(F)(F)F)c1ccc(O)cc1,"16.4 µM [falling, partial curve]",–
COc1ccccc1-n1cnnc1SC1CCOC1=O (configuration not stated),"0.794 µM [falling, partial curve, poor fit]",–
Cc1ccc(S(=O)(=O)NC(CC(C)C)C(=O)Nc2nccs2)cc1 (configuration not stated),"25.9 µM [falling, single point]",–
CC1CCc2nc3sc4c(c3c(N)c2C1)CCCC4 (configuration not stated),"0.58 µM [rising, partial curve, poor fit]",–
CC1CC(=O)c2cnc(NCC3CCCO3)nc2C1 (configuration not stated),"6.51 µM [rising, partial curve, poor fit]",–
Cc1cccc2cc(COC(=O)c3cccs3)c(=O)[nH]c12,"13 µM [rising, partial curve]",–
CCOc1ccc(C2C3=C(CCCC3=O)Nc3nc(C(F)(F)F)nn32)cc1OC (configuration not stated),"14.6 µM [falling, partial curve, poor fit]",–

Compound,AC50 [1],AC50 [2]
O=C(NNC(=S)Nc1ccc(Br)cc1)c1ccccc1,"20 µM [falling, single point]",–
CSCCC(NC(=O)c1ccccc1)C(=O)OCC(=O)c1ccc[nH]1 (configuration not stated),"14.6 µM [rising, partial curve]",–
O=C(O)c1cccc(C(=O)Nc2cccc(NC(=O)C3CCCO3)c2)c1 (configuration not stated),"9.2 µM [falling, partial curve, poor fit]",–
C#CC[N+](C)(C)CC#Cc1ccccc1,"6.31 µM [falling, single point]",–
CCOC(=O)C1CCCN(Cc2ccc3c(c2)OCO3)C1 (configuration not stated),"10.3 µM [rising, partial curve, poor fit]",–
COc1cc(C(=O)NCC(=O)OCc2cc(=O)oc3c(C)c(C)ccc23)cc(OC)c1OC,"3.55 µM [rising, single point]",–
Cc1cc(N2CCOCC2)ccc1/C=C\[N+](=O)[O-],"20.6 µM [falling, partial curve, poor fit]","32.6 µM [rising, partial curve, poor fit]"
CCN(CC)CCOc1ccc2c(c1)C(=NO)c1cc(OCCN(CC)CC)ccc1-2,"35.5 µM [falling, single point]",–
Cn1ccnc1SCC(=O)c1c[nH]c2ccccc12,"7.94 µM [falling, partial curve]",–
COc1ccc(NC(=O)COc2cccc3c2CCN(C)C3=O)c(OC)c1,"7.08 µM [falling, partial curve]",–
COc1ccc(C2=NN(C(C#N)c3ccc(OC)c(OC)c3)C(c3ccccc3)C2)cc1 (configuration not stated),"6.51 µM [rising, single point]",–
CCS(=O)(=O)n1nc(-c2ccco2)nc1N,"35.5 µM [rising, partial curve, poor fit]",–
C=CCOc1ccc(C2c3c(oc4ccccc4c3=O)C(=O)N2CCCN2CCOCC2)cc1 (configuration not stated),"11.2 µM [rising, partial curve, poor fit]",–
O=C(CCCN1C(=O)S/C(=C\C=C\c2ccccc2)C1=O)Nc1ccc(O)cc1,"0.447 µM [falling, full curve]",–
COc1ccc(Nc2ncnc3sc(-c4ccccc4)cc23)cc1,"15.8 µM [falling, single point]",–
COC(=O)c1sccc1N/N=C/c1ccc(OC)c(OC)c1OC,"0.411 µM [falling, full curve]",–
COC(=O)c1cccc(Cn2c(Cl)c(/C=N/Nc3ccccc3C)sc2=O)c1,"25.9 µM [falling, single point]",–
NC(=S)N1OC[C@@H]2COc3ccc4ccccc4c3[C@@H]21,–,"35.5 µM [rising, partial curve, poor fit]"
Cn1cc(C(=O)N2CCCC(Nc3ccc(F)cc3)C2)c2ccccc21 (configuration not stated),"28.2 µM [falling, single point]",–
C(=C1/CCCC2=C1Nc1ncnn1C2c1ccccc1)/c1ccccc1 (configuration not stated),"15.8 µM [falling, partial curve, poor fit]",–
Cc1nc(N)sc1-c1nnc(SCC(=O)Nc2nccs2)n1C,"7.08 µM [falling, partial curve, poor fit]",–
Cn1cncc1C(=O)c1ccccc1,–,"35.5 µM [rising, partial curve, poor fit]"

Compound,AC50 [1],AC50 [2]
COC(=O)c1sc2cnccc2c1N,"7.31 µM [falling, partial curve, poor fit]",–
COc1ccccc1-n1c(SCC(=O)c2ccc(O)cc2O)nc2cc([N+](=O)[O-])ccc21,"20.6 µM [falling, single point]",–
COc1ccc(CNc2ncc(-c3ccccc3)n2C)c2ccccc12,"20 µM [falling, partial curve, poor fit]",–
COC(=O)c1ccc(-c2ccc(F)cc2)nc1C,"13 µM [rising, partial curve, poor fit]",–
CCCCn1nc(C(=O)Nc2cc(C(F)(F)F)ccc2N2CCOCC2)ccc1=O,"29.1 µM [falling, single point]",–
CCOc1ccccc1N/C(=C(/C(Cl)=C(Cl)Cl)[N+](=O)[O-])n1cncn1,"13 µM [falling, partial curve, poor fit]",–
CCN(CC)S(=O)(=O)c1ccc(NC=C(C#N)C#N)cc1,"3.16 µM [falling, single point]",–
CC(C)(C)c1ccc(/C=C/C(=O)c2ccc(NC3=NCCCS3)cc2)cc1,"14.6 µM [falling, partial curve]",–
COCC(C)N=Cc1c(O)[nH]c2ccccc12 (configuration not stated),"29.1 µM [falling, single point]",–
CCN(CC(=O)Nc1ccc(NC(C)=O)cc1)C(=O)c1c(-c2c(F)cccc2Cl)noc1C,"11.2 µM [falling, partial curve, poor fit]",–
COc1ccc(/C=C/C(=O)NC(=S)NN2CCCCC2c2cccnc2)cc1 (configuration not stated),"3.98 µM [rising, single point]",–
CCCCN(CC)C(=O)CSc1nc2n[nH]c(C)c2c(=N)n1-c1cccc(Cl)c1,"20 µM [falling, single point]",–
O=C(O)c1cc(=O)c2ccccc2o1,"35.5 µM [rising, single point]",–
O=C(Cc1ccc([N+](=O)[O-])cc1)Nc1ccc(Br)cn1,"5.62 µM [rising, single point]",–
O=C(O)C1C2CCC(O2)C1C(=O)Nc1cnn(Cc2ccccc2)c1 (configuration not stated),"16.4 µM [rising, single point]",–
C=CCSc1nnc2c(n1)[nH]c1c(C)cccc12,"7.94 µM [falling, partial curve]",–
CCOc1ccc(-c2cc(CCCC(=O)Nc3cc(OC)ccc3OC)no2)cc1,"2 µM [falling, full curve, poor fit]",–
CCOP(=O)(OCC)/C(C#N)=C/c1c[nH]c2ccccc12,"15.8 µM [falling, single point]",–
CCN(CC)CCNC(=O)C1c2ccccc2C(=O)N(CCOC)C1c1ccc(F)cc1 (configuration not stated),"7.31 µM [falling, partial curve, poor fit]",–
COc1cccc(C(=O)NCC(c2cccs2)N2CCc3ccccc32)c1 (configuration not stated),"29.1 µM [falling, partial curve, poor fit]",–

# For reference, 2 of the compounds above:
Compound,AC50 [1],AC50 [2]
COCC(C)N=Cc1c(O)[nH]c2ccccc12 (configuration not stated),"29.1 µM [falling, single point]",–
CCN(CC(=O)Nc1ccc(NC(C)=O)cc1)C(=O)c1c(-c2c(F)cccc2Cl)noc1C,"11.2 µM [falling, partial curve, poor fit]",–
